The results in this text go back to the supplement of paper PMC6411743.

Chains of the proteins cited; added tags and fusions are not shown. Lines headed by an entry give the natural chain unless they say otherwise; changes in a name come on top.
UniProt P0C1Z6, whole entry: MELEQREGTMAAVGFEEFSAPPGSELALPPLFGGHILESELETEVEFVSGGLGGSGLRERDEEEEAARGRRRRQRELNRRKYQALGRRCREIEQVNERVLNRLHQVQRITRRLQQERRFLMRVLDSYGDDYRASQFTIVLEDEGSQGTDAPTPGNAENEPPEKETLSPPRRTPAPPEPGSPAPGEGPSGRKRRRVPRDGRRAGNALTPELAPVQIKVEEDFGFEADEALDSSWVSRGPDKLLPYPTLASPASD
UniProt Q8TCU4: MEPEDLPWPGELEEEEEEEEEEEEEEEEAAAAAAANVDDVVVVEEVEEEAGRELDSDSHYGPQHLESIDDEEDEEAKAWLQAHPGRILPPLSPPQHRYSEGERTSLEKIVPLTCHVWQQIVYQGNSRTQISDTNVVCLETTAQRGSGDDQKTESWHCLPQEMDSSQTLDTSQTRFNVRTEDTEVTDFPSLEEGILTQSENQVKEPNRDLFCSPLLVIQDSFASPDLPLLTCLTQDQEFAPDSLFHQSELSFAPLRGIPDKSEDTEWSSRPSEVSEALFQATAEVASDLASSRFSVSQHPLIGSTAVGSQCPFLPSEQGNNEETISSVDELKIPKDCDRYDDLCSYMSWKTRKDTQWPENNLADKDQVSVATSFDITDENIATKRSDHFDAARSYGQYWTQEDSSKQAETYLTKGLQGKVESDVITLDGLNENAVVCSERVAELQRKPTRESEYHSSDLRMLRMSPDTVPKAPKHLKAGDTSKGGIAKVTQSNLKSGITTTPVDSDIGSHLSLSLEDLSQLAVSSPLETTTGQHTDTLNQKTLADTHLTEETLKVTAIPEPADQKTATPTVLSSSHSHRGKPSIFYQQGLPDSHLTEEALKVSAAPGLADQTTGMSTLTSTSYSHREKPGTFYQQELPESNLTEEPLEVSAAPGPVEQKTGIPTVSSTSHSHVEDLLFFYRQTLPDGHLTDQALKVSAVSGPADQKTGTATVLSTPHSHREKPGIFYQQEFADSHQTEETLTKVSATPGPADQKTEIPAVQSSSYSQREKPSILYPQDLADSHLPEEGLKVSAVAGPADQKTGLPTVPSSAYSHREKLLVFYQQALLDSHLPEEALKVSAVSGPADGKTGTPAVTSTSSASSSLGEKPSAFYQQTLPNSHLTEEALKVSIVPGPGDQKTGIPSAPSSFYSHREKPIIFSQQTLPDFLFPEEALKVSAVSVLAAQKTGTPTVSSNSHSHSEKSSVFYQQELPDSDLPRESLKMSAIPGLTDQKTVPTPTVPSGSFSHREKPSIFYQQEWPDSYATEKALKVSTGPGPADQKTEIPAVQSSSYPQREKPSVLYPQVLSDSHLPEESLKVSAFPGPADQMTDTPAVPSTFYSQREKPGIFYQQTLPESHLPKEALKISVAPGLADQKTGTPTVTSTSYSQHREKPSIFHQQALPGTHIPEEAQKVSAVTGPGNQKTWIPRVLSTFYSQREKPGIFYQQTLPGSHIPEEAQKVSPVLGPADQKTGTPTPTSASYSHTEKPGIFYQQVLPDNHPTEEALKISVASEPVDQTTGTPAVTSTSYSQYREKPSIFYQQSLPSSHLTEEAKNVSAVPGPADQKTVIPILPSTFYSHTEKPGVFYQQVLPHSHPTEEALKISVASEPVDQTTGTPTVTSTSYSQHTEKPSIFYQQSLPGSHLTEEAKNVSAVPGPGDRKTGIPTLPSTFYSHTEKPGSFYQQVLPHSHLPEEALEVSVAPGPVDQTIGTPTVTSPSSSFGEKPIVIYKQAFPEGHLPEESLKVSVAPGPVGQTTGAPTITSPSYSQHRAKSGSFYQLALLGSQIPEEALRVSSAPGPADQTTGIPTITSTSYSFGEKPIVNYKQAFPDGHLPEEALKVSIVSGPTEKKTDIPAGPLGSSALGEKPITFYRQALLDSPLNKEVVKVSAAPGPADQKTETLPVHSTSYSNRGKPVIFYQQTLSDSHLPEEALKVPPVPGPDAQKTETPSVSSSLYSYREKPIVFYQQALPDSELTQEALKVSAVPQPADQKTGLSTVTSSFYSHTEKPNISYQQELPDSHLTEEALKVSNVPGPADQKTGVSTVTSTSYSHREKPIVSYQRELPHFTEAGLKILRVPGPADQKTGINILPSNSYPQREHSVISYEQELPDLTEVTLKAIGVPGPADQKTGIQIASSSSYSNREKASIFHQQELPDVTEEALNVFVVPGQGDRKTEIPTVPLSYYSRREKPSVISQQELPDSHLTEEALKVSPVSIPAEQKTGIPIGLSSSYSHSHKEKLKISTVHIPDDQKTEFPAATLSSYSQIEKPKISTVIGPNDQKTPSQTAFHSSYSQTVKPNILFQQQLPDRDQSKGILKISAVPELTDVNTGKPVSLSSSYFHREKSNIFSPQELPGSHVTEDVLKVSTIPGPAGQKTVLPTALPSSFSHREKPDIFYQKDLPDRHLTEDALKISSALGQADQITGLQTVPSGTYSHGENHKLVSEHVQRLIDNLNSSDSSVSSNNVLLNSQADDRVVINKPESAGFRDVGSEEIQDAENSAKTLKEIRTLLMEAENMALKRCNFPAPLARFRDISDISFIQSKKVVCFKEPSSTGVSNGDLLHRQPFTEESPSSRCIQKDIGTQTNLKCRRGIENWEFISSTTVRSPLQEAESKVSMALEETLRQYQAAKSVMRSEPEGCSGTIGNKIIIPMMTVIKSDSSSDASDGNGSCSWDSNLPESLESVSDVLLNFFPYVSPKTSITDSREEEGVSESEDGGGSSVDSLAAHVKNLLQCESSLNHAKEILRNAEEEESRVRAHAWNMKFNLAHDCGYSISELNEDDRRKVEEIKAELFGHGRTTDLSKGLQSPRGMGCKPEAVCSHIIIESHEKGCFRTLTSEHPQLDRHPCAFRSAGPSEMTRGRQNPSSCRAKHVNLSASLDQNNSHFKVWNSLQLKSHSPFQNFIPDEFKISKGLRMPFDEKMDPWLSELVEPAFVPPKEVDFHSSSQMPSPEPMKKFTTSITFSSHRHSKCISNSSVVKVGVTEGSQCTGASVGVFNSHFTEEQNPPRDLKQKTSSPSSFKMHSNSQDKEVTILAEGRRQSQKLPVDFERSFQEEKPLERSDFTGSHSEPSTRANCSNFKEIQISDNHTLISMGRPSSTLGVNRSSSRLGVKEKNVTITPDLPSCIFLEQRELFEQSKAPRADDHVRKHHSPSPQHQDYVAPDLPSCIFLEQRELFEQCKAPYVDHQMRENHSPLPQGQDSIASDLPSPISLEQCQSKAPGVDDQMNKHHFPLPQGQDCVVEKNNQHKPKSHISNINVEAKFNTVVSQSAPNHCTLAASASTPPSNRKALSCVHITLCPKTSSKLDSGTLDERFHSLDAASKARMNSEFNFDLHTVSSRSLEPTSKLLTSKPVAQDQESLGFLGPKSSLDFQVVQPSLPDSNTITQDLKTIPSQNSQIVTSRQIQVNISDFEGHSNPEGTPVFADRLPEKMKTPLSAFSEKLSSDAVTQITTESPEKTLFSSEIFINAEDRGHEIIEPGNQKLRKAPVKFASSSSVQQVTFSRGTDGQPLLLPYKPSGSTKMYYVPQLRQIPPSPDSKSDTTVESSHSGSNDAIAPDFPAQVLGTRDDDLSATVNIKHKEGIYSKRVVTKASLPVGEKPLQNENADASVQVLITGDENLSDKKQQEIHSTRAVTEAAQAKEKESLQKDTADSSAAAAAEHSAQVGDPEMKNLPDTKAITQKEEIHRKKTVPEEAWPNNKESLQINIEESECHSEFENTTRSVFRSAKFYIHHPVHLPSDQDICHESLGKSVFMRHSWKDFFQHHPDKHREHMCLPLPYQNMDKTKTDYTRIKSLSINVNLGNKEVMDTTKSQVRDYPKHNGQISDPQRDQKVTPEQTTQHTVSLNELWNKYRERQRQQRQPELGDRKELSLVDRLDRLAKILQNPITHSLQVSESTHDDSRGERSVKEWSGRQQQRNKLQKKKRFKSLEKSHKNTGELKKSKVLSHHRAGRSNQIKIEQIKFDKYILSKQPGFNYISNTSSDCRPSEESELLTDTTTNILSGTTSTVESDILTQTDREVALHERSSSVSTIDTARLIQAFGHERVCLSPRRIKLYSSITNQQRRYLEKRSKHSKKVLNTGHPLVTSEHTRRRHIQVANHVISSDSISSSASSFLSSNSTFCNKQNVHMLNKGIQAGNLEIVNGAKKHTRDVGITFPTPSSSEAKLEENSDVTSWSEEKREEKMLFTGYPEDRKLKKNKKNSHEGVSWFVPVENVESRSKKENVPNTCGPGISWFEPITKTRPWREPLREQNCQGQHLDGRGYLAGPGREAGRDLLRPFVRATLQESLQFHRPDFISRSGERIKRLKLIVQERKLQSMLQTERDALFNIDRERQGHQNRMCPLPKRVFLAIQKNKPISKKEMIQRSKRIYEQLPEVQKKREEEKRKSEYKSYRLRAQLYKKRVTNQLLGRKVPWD
UniProt P46087: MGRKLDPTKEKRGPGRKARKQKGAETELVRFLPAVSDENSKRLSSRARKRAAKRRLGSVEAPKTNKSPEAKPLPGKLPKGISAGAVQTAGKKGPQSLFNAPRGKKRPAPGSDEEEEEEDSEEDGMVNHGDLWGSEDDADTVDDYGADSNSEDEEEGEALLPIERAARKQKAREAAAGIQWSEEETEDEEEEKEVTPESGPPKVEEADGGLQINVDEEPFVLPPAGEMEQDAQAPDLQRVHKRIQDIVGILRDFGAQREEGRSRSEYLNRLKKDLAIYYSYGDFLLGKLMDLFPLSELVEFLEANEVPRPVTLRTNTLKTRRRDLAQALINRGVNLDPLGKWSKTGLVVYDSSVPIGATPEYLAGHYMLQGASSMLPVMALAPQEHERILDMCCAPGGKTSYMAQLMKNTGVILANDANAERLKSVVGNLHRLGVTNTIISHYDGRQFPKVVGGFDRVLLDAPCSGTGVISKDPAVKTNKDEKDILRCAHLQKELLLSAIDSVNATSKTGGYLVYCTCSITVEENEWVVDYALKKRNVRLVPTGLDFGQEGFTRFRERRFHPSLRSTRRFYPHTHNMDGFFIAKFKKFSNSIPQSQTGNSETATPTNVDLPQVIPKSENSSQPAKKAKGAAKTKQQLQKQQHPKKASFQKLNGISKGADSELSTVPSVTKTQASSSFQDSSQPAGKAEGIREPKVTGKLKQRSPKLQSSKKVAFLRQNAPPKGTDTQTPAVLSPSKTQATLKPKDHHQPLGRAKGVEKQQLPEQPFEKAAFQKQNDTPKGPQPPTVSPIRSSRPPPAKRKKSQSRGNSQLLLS
UniProt O75503: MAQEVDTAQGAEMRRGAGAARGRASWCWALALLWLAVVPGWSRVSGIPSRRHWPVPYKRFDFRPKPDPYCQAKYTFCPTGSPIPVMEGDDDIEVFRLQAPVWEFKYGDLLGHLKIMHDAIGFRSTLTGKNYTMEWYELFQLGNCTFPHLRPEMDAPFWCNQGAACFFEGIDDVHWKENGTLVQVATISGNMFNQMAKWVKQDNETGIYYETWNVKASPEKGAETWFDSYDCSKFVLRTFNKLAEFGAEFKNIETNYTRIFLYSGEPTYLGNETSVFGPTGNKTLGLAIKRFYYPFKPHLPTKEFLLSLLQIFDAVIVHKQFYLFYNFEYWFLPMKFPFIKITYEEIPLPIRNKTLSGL
UniProt Q70IA6: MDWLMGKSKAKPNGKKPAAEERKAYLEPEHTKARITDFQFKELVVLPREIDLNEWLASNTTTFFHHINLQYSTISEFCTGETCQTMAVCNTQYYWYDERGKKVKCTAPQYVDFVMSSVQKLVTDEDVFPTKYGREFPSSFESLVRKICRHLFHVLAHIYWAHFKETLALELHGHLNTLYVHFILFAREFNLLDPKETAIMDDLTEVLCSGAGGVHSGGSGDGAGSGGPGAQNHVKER
UniProt Q9Y6I9: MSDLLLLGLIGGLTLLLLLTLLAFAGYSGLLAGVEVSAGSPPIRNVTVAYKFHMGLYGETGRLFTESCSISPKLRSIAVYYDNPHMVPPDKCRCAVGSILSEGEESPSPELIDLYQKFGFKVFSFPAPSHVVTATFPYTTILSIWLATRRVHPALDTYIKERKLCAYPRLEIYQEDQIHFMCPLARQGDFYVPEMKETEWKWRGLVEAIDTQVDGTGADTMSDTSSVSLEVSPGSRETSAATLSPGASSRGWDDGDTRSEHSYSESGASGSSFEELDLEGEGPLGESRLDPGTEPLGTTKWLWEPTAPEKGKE
UniProt P07203, whole entry: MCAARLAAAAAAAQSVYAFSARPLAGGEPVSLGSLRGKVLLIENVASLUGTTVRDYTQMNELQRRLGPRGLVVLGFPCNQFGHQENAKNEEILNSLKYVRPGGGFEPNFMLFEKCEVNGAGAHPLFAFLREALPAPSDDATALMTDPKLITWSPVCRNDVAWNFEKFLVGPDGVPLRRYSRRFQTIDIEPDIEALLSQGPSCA
UniProt Q9Y3D8, whole entry: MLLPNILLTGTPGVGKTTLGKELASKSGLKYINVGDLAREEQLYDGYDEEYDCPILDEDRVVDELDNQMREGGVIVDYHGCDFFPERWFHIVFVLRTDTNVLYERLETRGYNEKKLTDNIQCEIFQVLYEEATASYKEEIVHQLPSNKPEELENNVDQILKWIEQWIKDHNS

Compound in the experiment: Nc1nc2c(ncn2[C@@H]2O[C@H](COP(=O)(O)OP(=O)(O)OP(=O)(O)O)[C@@H](O)[C@H]2O)c(=O)[nH]1 [guanosine triphosphate]
Description: NP40-soluble protein abundance relative to vehicle (solubility fold change) (ratio); higher = more soluble protein in presence of GTP. The gist of the method:
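Across three independent experiments, values are fold changes against the detergent-processed vehicle for each replicate, based on vsn-normalised intensities. The samples were Jurkat crude lysate treated with eight concentrations (0.1 to 10 mM) for 10 min at room temperature and then 3 min at 37 °C. Lysate was solubilised with 0.8% NP40 and benzonase, ultracentrifuged, and the supernatant analysed by TMT-labelled LC-MS/MS.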

± gives the standard deviation of the averaged measurements. The list shows a part of the results.

“A0A024R4Q5|G5E9B5 and related entries (UniProt P0C1Z6)”: the NP40-soluble protein abundance was 1.12 ± 0.14 (concentration: 0.1mM); 1.05 ± 0.099 (concentration: 0.5mM); 1.09 ± 0.17 (concentration: 1mM); 1.16 ± 0.21 (concentration: 2mM); 1.15 ± 0.25 (concentration: 4mM); 1.2 ± 0.13 (concentration: 6mM). For the same target, the NP40-soluble protein abundance reads like this: (concentration: 8mM) 1.21 ± 0.19; (concentration: 10mM) 1.18 ± 0.14.

Consider “A0A087WVT6|Q9BWW4 and related entries (UniProt Q9BWW4)”, for which the NP40-soluble protein abundance runs as follows: (concentration: 0.1mM) 1.14 ± 0.36; (concentration: 0.5mM) 1.14 ± 0.19; (concentration: 1mM) 1.11 ± 0.14; (concentration: 2mM) 1 ± 0.15; (concentration: 4mM) 0.955 ± 0.12; (concentration: 6mM) 0.906 ± 0.25. For the same target, the NP40-soluble protein abundance (concentration: 8mM) was determined as 1.16 ± 0.029 and the NP40-soluble protein abundance (concentration: 10mM) was determined as 1.28 ± 0.38.

With “A0A087WTU9|A0A087WZY3|Q8TCU4 and related entries (UniProt Q8TCU4)”, the NP40-soluble protein abundance by setting is: (concentration: 0.1mM) 1.02 ± 0.14; (concentration: 0.5mM) 0.885 ± 0.064; (concentration: 1mM) 1.09 ± 0.12; (concentration: 2mM) 1.1 ± 0.031; (concentration: 4mM) 1.06 ± 0.083; (concentration: 6mM) 1.04 ± 0.064. Further, the NP40-soluble protein abundance (concentration: 8mM) is 0.96 ± 0.13 and the NP40-soluble protein abundance (concentration: 10mM) came to 1.15 ± 0.2.

Take “A0A087WV73|P46087 and related entries (UniProt P46087)”: the NP40-soluble protein abundance came out at 0.994 ± 0.047 (concentration: 0.1mM); 1.02 ± 0.045 (concentration: 0.5mM); 1.08 ± 0.036 (concentration: 1mM); 1.17 ± 0.037 (concentration: 2mM); 1.29 ± 0.055 (concentration: 4mM); 1.39 ± 0.073 (concentration: 6mM). In addition, the NP40-soluble protein abundance (concentration: 8mM) was found to be 1.49 ± 0.083 and the NP40-soluble protein abundance (concentration: 10mM) is 1.67 ± 0.12.

Consider “A0A087WWP8|A0A0C4DGT8|Q5VWQ0 (UniProt Q5VWQ0)”, for which the NP40-soluble protein abundance stood at 1.06 ± 0.027 (concentration: 0.1mM); 1.22 ± 0.017 (concentration: 0.5mM); 1.27 ± 0.11 (concentration: 1mM); 1.38 ± 0.15 (concentration: 2mM); 1.36 ± 0.17 (concentration: 4mM); 1.45 ± 0.2 (concentration: 6mM). In addition, the NP40-soluble protein abundance turned out to be 1.44 ± 0.21 (concentration: 8mM) and 1.48 ± 0.22 (concentration: 10mM).

Regarding “A0A087WWF6|F8W8R3 and related entries (UniProt P49005)”, the NP40-soluble protein abundance by setting is: (concentration: 0.1mM) 1 ± 0.043; (concentration: 0.5mM) 1.01 ± 0.025; (concentration: 1mM) 0.945 ± 0.052; (concentration: 2mM) 0.941 ± 0.028; (concentration: 4mM) 0.969 ± 0.058; (concentration: 6mM) 0.937 ± 0.064. For the same target, the NP40-soluble protein abundance is 0.931 ± 0.027 (concentration: 8mM) and 0.935 ± 0.037 (concentration: 10mM).

With “A0A087WUS0|E7ETK0 and related entries (UniProt P62847)”, the NP40-soluble protein abundance by setting is: (concentration: 0.1mM) 0.977 ± 0.12; (concentration: 0.5mM) 1.09 ± 0.18; (concentration: 1mM) 1.08 ± 0.26; (concentration: 2mM) 1.03 ± 0.26; (concentration: 4mM) 0.886 ± 0.27; (concentration: 6mM) 0.893 ± 0.28. In addition, the NP40-soluble protein abundance (concentration: 8mM) was 0.708 ± 0.22 and the NP40-soluble protein abundance (concentration: 10mM) came to 0.839 ± 0.28.

For the target A0A024R644|O75503 (UniProt O75503), the NP40-soluble protein abundance runs as follows: (concentration: 0.1mM) 0.927 ± 0.039; (concentration: 0.5mM) 0.93 ± 0.081; (concentration: 1mM) 0.909 ± 0.044; (concentration: 2mM) 0.907 ± 0.032; (concentration: 4mM) 0.897 ± 0.051; (concentration: 6mM) 0.93 ± 0.041. Also, the NP40-soluble protein abundance runs as follows: (concentration: 8mM) 0.857 ± 0.084; (concentration: 10mM) 0.917 ± 0.088.

Consider “A0A087WVS8|Q70IA6 and related entries (UniProt Q70IA6)”, for which the NP40-soluble protein abundance runs as follows: (concentration: 0.1mM) 1.08 ± 0.072; (concentration: 0.5mM) 1.04 ± 0.12; (concentration: 1mM) 1 ± 0.015; (concentration: 2mM) 1.02 ± 0.034; (concentration: 4mM) 0.991 ± 0.048; (concentration: 6mM) 0.974 ± 0.022. Further, the NP40-soluble protein abundance was 0.975 ± 0.055 (concentration: 8mM) and 0.915 ± 0.03 (concentration: 10mM).

On to A0A087WTU3|Q9Y6I9 (UniProt Q9Y6I9), for which the NP40-soluble protein abundance by setting is: (concentration: 0.1mM) 0.968 ± 0.064; (concentration: 0.5mM) 0.976 ± 0.098; (concentration: 1mM) 0.97 ± 0.088; (concentration: 2mM) 0.934 ± 0.1; (concentration: 4mM) 0.94 ± 0.12; (concentration: 6mM) 0.93 ± 0.13. In addition, the NP40-soluble protein abundance reads like this: (concentration: 8mM) 0.934 ± 0.096; (concentration: 10mM) 0.931 ± 0.1.

Consider A0A087WUQ6|P07203 (UniProt P07203), for which the NP40-soluble protein abundance runs as follows: (concentration: 0.1mM) 0.93 ± 0.087; (concentration: 0.5mM) 0.88 ± 0.064; (concentration: 1mM) 0.929 ± 0.097; (concentration: 2mM) 0.895 ± 0.12; (concentration: 4mM) 0.892 ± 0.092; (concentration: 6mM) 0.867 ± 0.12. The NP40-soluble protein abundance is 0.884 ± 0.052 (concentration: 8mM) and 0.888 ± 0.12 (concentration: 10mM).

As to A0A087WVP1|Q14517 (UniProt Q14517), the NP40-soluble protein abundance runs as follows: (concentration: 0.1mM) 1.07 ± 0.039; (concentration: 0.5mM) 1.09 ± 0.064; (concentration: 1mM) 1.15 ± 0.03; (concentration: 2mM) 1.14 ± 0.054; (concentration: 4mM) 1.19 ± 0.081; (concentration: 6mM) 1.15 ± 0.076. Also, the NP40-soluble protein abundance by setting is: (concentration: 8mM) 1.23 ± 0.16; (concentration: 10mM) 1.2 ± 0.17.

Consider “A0A087WVD7|Q9Y3D8 and related entries (UniProt Q9Y3D8)”, for which the NP40-soluble protein abundance (concentration: 0.1mM) stood at 0.963 ± 0.02; the NP40-soluble protein abundance (concentration: 0.5mM) was 0.876 ± 0.0094; the NP40-soluble protein abundance (concentration: 1mM) was 0.983 ± 0.065; the NP40-soluble protein abundance (concentration: 2mM) came to 0.984 ± 0.073; the NP40-soluble protein abundance (concentration: 4mM) worked out at 0.967 ± 0.082; the NP40-soluble protein abundance (concentration: 6mM) is 0.956 ± 0.11. The NP40-soluble protein abundance reads like this: (concentration: 8mM) 0.896 ± 0.12; (concentration: 10mM) 0.948 ± 0.065.
